# Experimental data taken from publication PMC6529477.
# Sequences of proteins named here, by UniProt entry; tags and fusion partners are left off. A change or cut given only in a name is not applied to a line headed by its entry.
# UniProt P08183: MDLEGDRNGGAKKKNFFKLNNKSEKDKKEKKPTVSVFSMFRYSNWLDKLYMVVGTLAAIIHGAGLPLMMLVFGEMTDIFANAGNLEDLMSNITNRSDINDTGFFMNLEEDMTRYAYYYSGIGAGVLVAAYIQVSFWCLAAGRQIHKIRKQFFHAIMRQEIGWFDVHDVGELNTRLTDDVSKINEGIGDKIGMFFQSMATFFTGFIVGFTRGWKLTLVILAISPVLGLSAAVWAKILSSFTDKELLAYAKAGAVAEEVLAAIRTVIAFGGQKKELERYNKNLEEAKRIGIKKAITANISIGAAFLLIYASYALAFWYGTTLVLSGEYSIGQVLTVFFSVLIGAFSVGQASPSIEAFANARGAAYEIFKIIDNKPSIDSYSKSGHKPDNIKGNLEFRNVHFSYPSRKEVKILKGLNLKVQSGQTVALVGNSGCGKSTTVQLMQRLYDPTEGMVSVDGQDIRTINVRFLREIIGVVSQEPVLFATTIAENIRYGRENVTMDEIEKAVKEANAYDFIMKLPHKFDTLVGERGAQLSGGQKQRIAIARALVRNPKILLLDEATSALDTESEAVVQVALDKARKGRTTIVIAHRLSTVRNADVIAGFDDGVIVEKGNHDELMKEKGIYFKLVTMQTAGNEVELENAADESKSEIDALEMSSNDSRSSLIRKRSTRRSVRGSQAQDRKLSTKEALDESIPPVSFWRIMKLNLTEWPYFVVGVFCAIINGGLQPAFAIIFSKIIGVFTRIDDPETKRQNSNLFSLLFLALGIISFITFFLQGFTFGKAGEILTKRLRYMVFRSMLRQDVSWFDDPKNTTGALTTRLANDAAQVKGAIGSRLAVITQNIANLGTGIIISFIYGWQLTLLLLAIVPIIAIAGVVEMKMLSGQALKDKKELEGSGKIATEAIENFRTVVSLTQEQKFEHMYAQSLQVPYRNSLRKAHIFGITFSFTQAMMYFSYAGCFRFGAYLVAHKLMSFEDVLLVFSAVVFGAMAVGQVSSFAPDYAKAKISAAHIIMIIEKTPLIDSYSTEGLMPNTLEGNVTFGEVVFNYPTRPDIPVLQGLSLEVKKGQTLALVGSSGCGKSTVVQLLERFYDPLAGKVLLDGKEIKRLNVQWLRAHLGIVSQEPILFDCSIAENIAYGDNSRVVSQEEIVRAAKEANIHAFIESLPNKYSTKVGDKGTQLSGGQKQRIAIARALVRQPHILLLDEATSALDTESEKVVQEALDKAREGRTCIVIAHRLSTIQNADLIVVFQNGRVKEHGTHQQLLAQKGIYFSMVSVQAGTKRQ
# UniProt Q03135: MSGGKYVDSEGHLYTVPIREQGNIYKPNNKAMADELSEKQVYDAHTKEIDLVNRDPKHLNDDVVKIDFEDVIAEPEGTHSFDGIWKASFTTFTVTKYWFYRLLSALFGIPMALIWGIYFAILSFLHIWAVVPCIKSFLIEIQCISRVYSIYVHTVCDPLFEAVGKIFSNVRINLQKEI
# These are yes or no findings as the source states them, for the method shown. Binding seen in cells or lysates may run through a third protein. Some entries that bind do so weakly or less than the wild type.
# What was measured:
# [1] = molecular target: P-glycoprotein (human (endogenous in MCF-7/ADR)) (UniProt P08183); assay: co-IP; lysates of Cav1-silenced MCF-7/ADR cells rescued with Cav1 WT or Cav1 Y14E; immunoprecipitated with anti-P-gp or anti-Cav1 antibodies, western blotting
# [2] = molecular target: Cav1 (Y14E) phosphor-tyrosine mimicking mutant (UniProt Q03135); assay: as above
# [3] = molecular target: wild-type Cav1 (rescued expression) (UniProt Q03135); assay: as above
# [4] = molecular target: caveolin-1 (human (endogenous in MCF-7/ADR)) (UniProt Q03135); assay: co-IP; endogenous proteins in MCF-7/ADR lysates (Tris-Triton X-100-based lysis buffer); 1 ug of anti-P-gp, Src, Rack1 or Cav1 antibody overnight at 4 C, protein G-agarose, western blotting; also in control, Rack1-silenced (siRNA) and Src-silenced (siRNA) cells
# [5] = molecular target: P-glycoprotein (human (endogenous in MCF-7/ADR)) (UniProt P08183); assay: as above
substance,measurement,setting,value
Cav1 (Y14E) phosphor-tyrosine mimicking mutant (from UniProt Q03135 1-178),binding,[1],binds
P-glycoprotein (from UniProt P08183 1-1280),binding,[2],binds
same,binding,[3],binds
same,binding,[4],binds
caveolin-1 (from UniProt Q03135 1-178),binding,[5],binds
wild-type Cav1 (rescued expression) (from UniProt Q03135 1-178),binding,[1],binds
